Values from PubChem BioAssay AID1259264 (Sanger Institute, 2017).
In all, the deposit lists 794 reagents; below is a random part of them. Of all reagents, 15 (1.9%) were called active. 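Calls rest on knock-down alone at z-score below -3; synergy scores with the three drugs do not decide them.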 Entries without a mark were called inactive. No viability above 1 is reported: the scale is capped. Not all columns of the deposit are shown. The record does not give: the amount of reagent, the time to read-out.

Aim: 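Kinases whose loss cuts CL40 colorectal cancer cell survival, alone or with drugs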 (primary screen)
System: CL40 human colorectal cancer cells
Knock-down reagent: siRNA pool against human genes
Challenge: DMSO, or an anchor drug: BYL719 at 1 µM, cetuximab at 5 µg/ml, or trametinib at 10 nM
Measured: 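Replicate-mean viability versus a non-targeting pool, robust z-score from control wells, and mean synergy with BYL719 1 µM, cetuximab 5 µg/ml or trametinib 10 nM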
Scale: robust z-score, siRNA alone and viability, siRNA alone: higher = more viable cells
Units: viability, siRNA alone in fraction of control
Active means: 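Essential call: siRNA with no drug reaches a robust z under -3 (low cell count); drug synergy scores do not affect it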
Calls: active = essential (lowers viability alone); inactive = not essential

After knock-down of HIPK3 [SID152151658], the record shows robust z-score, siRNA alone -0.358; viability, siRNA alone 0.936. Against STK38 [SID152149792], the entry reads robust z-score, siRNA alone 0.0352; viability, siRNA alone 0.964. With knock-down of PRKAA1 [SID152155693], the screen gave robust z-score, siRNA alone 0.539; viability, siRNA alone 1. After knock-down of PRKAR1B [SID152149404], the record shows robust z-score, siRNA alone -1.23; viability, siRNA alone 0.874. TP53BP1 [SID134309949] gave robust z-score, siRNA alone 0.539; viability, siRNA alone 1. Knock-down of DYRK1B [SID56478878] gave: robust z-score, siRNA alone -0.41; viability, siRNA alone 0.932.

FRK [SID56478519] gave robust z-score, siRNA alone -0.224; viability, siRNA alone 0.945. Silencing of MKNK2 [SID152150791] gave: robust z-score, siRNA alone 0.539; viability, siRNA alone 1. ITSN1 [SID135621555] gave robust z-score, siRNA alone -0.117; viability, siRNA alone 0.953. After knock-down of PHKA1 [SID152155157], the screen gave robust z-score, siRNA alone 0.539; viability, siRNA alone 1. For NME5 [SID56479119], the values are robust z-score, siRNA alone 0.305; viability, siRNA alone 0.983. For ABL1 [SID135620610], the values are robust z-score, siRNA alone 0.539; viability, siRNA alone 1.

RET [SID135620630] gave robust z-score, siRNA alone 0.539; viability, siRNA alone 1.

Reprinted from above, 4 entries:
PHKA1 [SID152155157]: robust z-score, siRNA alone = 0.539; viability, siRNA alone = 1
NME5 [SID56479119]: robust z-score, siRNA alone = 0.305; viability, siRNA alone = 0.983
ABL1 [SID135620610]: robust z-score, siRNA alone = 0.539; viability, siRNA alone = 1
RET [SID135620630]: robust z-score, siRNA alone = 0.539; viability, siRNA alone = 1

The list goes on.
With knock-down of MAPK13 [SID56478704], the screen gave robust z-score, siRNA alone 0.539; viability, siRNA alone 1. ADGRL2 [SID152152166] scored robust z-score, siRNA alone -0.539; viability, siRNA alone 0.923. For CDK15 [SID56478852] the deposit lists robust z-score, siRNA alone 0.508; viability, siRNA alone 0.998. Silencing of BCKDK [SID135620909] gave: robust z-score, siRNA alone 0.539; viability, siRNA alone 1. For PKLR [SID152148534], the entry reads robust z-score, siRNA alone 0.539; viability, siRNA alone 1. Depletion of PFKFB4 [SID152152940] came out at: robust z-score, siRNA alone 0.539; viability, siRNA alone 1.

With knock-down of SYK [SID56478554] the results were robust z-score, siRNA alone -3.15 (active); viability, siRNA alone 0.735. CDK7 [SID152150057] gave robust z-score, siRNA alone 0.539; viability, siRNA alone 1. PAK6 [SID56478794] scored robust z-score, siRNA alone 0.539; viability, siRNA alone 1. Knock-down of CALM1 [SID152156420] gave: robust z-score, siRNA alone 0.539; viability, siRNA alone 1. TSKS [SID56479267] showed robust z-score, siRNA alone 0.539; viability, siRNA alone 1. After knock-down of JAK2 [SID56478524], the record shows robust z-score, siRNA alone 0.539; viability, siRNA alone 1.

For LMTK1 [SID152151616] the deposit lists robust z-score, siRNA alone 0.393; viability, siRNA alone 0.99. With knock-down of ATR [SID135620635], the screen gave robust z-score, siRNA alone 0.539; viability, siRNA alone 1. After knock-down of ADCK1 [SID135620966] the results were robust z-score, siRNA alone -0.524; viability, siRNA alone 0.924.
